Measurements from article PMC11229306.
Results are given in words; binding and its absence hold for the method and conditions named. Binding seen in cells or lysates may run through a third protein. Some binding calls cover weakened binding; strength is not graded here. For part of these data: Tags and fused reporters may be left off the sequences shown.

Columns and labels:
[1] = target: T1, Flag-USP8 (full-length) (UniProt P40818); assay: co-IP; exogenous USP8 and OGT in 293 T (legend: HEK293) cells; which one was precipitated is not told
T1 sequence: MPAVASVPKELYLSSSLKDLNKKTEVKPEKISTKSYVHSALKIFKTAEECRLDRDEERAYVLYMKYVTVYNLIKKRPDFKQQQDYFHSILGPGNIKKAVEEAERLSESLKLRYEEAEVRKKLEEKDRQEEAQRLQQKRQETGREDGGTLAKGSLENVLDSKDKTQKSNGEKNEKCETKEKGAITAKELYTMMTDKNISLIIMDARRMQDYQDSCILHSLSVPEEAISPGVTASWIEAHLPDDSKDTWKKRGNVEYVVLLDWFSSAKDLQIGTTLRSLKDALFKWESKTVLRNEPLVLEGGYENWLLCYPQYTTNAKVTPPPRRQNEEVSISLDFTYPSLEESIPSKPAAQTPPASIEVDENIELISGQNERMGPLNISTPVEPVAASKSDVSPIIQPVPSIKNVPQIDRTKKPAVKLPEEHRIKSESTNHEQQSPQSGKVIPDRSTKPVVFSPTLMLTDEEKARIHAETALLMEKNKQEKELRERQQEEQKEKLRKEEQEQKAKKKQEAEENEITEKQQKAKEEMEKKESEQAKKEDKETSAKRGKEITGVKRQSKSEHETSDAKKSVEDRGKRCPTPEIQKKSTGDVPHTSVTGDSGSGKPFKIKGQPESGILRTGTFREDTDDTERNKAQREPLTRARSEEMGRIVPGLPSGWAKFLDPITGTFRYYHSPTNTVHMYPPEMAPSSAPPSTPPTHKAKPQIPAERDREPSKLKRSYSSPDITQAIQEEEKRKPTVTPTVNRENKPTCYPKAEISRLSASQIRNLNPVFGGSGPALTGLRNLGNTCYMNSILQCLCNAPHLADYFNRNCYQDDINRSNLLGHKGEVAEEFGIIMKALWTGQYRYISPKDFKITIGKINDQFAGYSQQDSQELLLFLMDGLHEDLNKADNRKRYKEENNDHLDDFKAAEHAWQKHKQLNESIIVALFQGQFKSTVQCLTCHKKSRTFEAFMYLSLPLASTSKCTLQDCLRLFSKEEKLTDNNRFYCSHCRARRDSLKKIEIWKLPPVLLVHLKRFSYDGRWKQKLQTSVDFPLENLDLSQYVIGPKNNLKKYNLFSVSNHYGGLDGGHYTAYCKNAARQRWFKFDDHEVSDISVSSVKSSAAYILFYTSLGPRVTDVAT

[2] = target: T2, Ubiquitin-specific peptidase 8 (USP8), endogenous (human (endogenous in HCCC9810 and RBE)) (UniProt P40818); assay: co-IP; endogenous proteins in HCCC9810 and RBE lysate (IP lysis solution with protease inhibitors), precleared with rabbit IgG 4 h, overnight immunoprecipitation with USP8 or OGT antibody, western blot
T2 sequence: T1 sequence

[3] = target: T3, Myc-OGT (full-length) (UniProt O15294); assay: co-IP; HEK293 cells transfected with Flag-USP8 full-length or deletion mutants and 2 μg Myc-OGT, NP-40 lysis buffer after 24 h, Myc antibody for co-IP, Flag antibody for detection
T3 sequence: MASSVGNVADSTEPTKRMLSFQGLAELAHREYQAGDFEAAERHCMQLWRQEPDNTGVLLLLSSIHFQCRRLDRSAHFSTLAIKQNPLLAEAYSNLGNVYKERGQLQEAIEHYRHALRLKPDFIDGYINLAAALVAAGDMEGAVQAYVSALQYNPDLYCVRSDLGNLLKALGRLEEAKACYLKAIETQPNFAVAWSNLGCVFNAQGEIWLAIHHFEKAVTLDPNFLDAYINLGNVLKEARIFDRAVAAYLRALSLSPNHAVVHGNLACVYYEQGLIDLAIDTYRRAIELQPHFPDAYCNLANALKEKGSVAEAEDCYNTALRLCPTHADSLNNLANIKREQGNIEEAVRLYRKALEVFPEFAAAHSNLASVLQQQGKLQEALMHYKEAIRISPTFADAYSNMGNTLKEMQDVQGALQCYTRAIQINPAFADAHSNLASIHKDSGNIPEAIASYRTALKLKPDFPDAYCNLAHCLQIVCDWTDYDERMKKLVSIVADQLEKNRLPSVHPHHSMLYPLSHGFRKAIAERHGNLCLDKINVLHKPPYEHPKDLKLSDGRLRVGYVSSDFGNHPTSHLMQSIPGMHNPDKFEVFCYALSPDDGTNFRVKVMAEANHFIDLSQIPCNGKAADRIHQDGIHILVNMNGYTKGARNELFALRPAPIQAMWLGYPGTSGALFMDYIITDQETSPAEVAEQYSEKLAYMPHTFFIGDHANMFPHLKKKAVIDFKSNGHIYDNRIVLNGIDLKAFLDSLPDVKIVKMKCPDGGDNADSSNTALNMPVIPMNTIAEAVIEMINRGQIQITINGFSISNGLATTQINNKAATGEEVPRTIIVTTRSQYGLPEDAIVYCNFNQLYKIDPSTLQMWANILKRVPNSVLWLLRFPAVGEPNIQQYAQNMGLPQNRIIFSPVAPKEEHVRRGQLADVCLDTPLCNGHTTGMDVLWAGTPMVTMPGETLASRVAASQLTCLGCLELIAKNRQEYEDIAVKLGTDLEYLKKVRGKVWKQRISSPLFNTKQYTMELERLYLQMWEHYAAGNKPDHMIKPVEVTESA

B1: Myc-OGT (full-length) (enzyme, UniProt O15294 1-1046)
chain: T3 sequence
B1 was tested, and the binding [1] was “binds”.

B2: O-GlcNAc transferase (OGT), endogenous (enzyme, UniProt O15294 1-1046)
chain: T3 sequence
For B2, the binding [2] was “binds”.

B3: USP8 USP domain (USP8 715-1118), Flag-tagged deletion mutant (domain or fragment, UniProt P40818 715-1118)
chain: RSYSSPDITQAIQEEEKRKPTVTPTVNRENKPTCYPKAEISRLSASQIRNLNPVFGGSGPALTGLRNLGNTCYMNSILQCLCNAPHLADYFNRNCYQDDINRSNLLGHKGEVAEEFGIIMKALWTGQYRYISPKDFKITIGKINDQFAGYSQQDSQELLLFLMDGLHEDLNKADNRKRYKEENNDHLDDFKAAEHAWQKHKQLNESIIVALFQGQFKSTVQCLTCHKKSRTFEAFMYLSLPLASTSKCTLQDCLRLFSKEEKLTDNNRFYCSHCRARRDSLKKIEIWKLPPVLLVHLKRFSYDGRWKQKLQTSVDFPLENLDLSQYVIGPKNNLKKYNLFSVSNHYGGLDGGHYTAYCKNAARQRWFKFDDHEVSDISVSSVKSSAAYILFYTSLGPRVTDVAT
With B3 the binding [3] was “binds”.
